Laboratory results from patent US20220290149, “METHOD OF DETECTION OF FIBRIN CLOTS” (I-ZUM-X PTY LTD, published 2022).

What was measured:
[1] = test system: SUBpr1 (subtraction protein + DD minus D protein); test: ELONA; conditions: purified native protein, protein details: immobilised, single-stranded DNA
[2] = test system: Insoluble cross-linked fibrin / plasma-derived blood clot (Homo sapiens); test: ELONA; conditions: purified native protein; protein details: clot prepared from citrated plasma plus CaCl2; label: 5' FAM (ELONA and imaging); single-stranded DNA
[3] = test system: Insoluble cross-linked fibrin / plasma-derived blood clot (Homo sapiens); test: binding assay; conditions: qPCR-based binding assay; purified native protein; protein details: clot prepared from citrated plasma plus CaCl2; label: 5' FAM (ELONA and imaging); single-stranded DNA
[4] = test system: Mouse plasma-derived blood clot (cross-linked fibrin) (Mus musculus); test: binding assay; conditions: imaging of mouse plasma clots; purified native protein; label: 5' FAM (ELONA and imaging); single-stranded DNA
[5] = test system: Fibrinogen B beta chain peptide 201-216 (fibrinopeptide); test: BLI; conditions: purified recombinant protein; protein details: 6xHis; label: 5' biotin; single-stranded DNA
[6] = test system: Fibrinogen B beta chain peptide 201-216 (fibrinopeptide); test: ELONA; conditions: enhanced versus negative control aptamer; purified recombinant protein; protein details: 6xHis; label: 5' biotin; single-stranded DNA
[7] = test system: Immobilised plasma proteins; test: binding assay; conditions: qPCR-based assay; purified native protein; protein details: amine-binding plate; label: 5' FAM (ELONA and imaging); single-stranded DNA

“ACAGTGTGGGCGGGCGGGTGGTTTGGAGCTGGTAGCGGTA [AP10-01]”: no binding ([1]; no binding pattern, variant of AP10-01-81).
“GGACAGGACCACACCCAGCGACAGTGTGGGCGGGCGGGTGGTTTGGAGCTGGTAGCGGTAGGCTCCTGTGTGTCGCTTTGT [AP10-01-81]”: no binding [1].
“GGACAGGACCACACCCAGCGATAATTAGGCATCCGGTCGCCAACCTTGGAGAAACTATCTGGCTCCTGTGTGTCGCTTTGT [RNV605]” was tested, and the Kd [2] was 0.118 nM, the Kd [3] was 85.8 nM and the binding result [4] was “binds”.
“GGACAGGACCACACCCAGCGGGCGGGCGGGGGAGGTGGAGGAAATGTGGGGAATGGGTACGGCTCCTGTGTGTCGCTTTGT [RNV747]”: binds [5].
“GGACAGGACCACACCCAGCGGGCGGGCGGGGGAGGTGGAGGAAATGTGGGGAATGGGTGCGGCTCCTGTGTGTCGCTTTGT [RNV745]”: binds [6].
“GGACAGGACCACACCCAGCGGTGGGGGGGGAGGAGGGTGGGGAGAAGGGTCAATGGTGGTGGCTCCTGTGTGTCGCTTTGT [RNV746]”: binds [5].
For “GGACAGGACCACACCCAGCGTAATAATATGGGGCTTGCGGTCCCCGATTTTTATGCACACGGCTCCTGTGTGTCGCTTTGT [RNV602]”, the Kd [2] was 0.404 nM, the Kd [3] was 46.1 nM and the binding result [7] was “no binding”. “GGACAGGACCACACCCAGCGTAATAATATGGGGCTTGCGGTCCCCGATTTTTATGCACACGGCTCCTGTGTGTCGCTTTGT [RNV602]”: binds [4].
“GGACAGGACCACACCCAGCGTGGTGGTGAAGAGGTGGGAGGGAGGGCCCCGCGATGGTAAGGCTCCTGTGTGTCGCTTTGT [RNV744]”: binds [6].

For some of these results: Negatives hold for the conditions tested. For some of these results: For at least one entry, the source does not settle the construct or the ends of the probe.
